{"source": "patent US6537670B1", "about": "“Bis(alkyleneoxybenzophenone) ultraviolet light absorbers” (Cytec Technology Corp., priority 2000, dated 2003)", "key": {"[1]": {"assay": "Capstock: initial color (YI) of laminated polycarbonate film with 7% additive", "settings": "7% in Capstock PC-Lexan 105"}, "[2]": {"assay": "Hydrolytic testing of polycarbonate plaques (water, 120° C., 6 hours)", "settings": "0.35% in Lexan 121 PC; water at 120° C. for 6 hours; YI before and after"}}, "data": [{"molecule": "CC(C)(C)CC(C)(C)c1ccc(O)c(-n2nc3ccccc3n2)c1", "note": "[Compound A, 2-(2′-hydroxy-5′-(1,1,3,3-tetramethylbutyl)phenyl)benzotriazole]", "values": [{"measurement": "YI Value (initial color)", "setting": "[1]", "result": 6.7}]}, {"molecule": "CC(C)(c1ccccc1)c1cc(-n2nc3ccccc3n2)c(O)c(C(C)(C)c2ccccc2)c1", "note": "[Compound C, 2-(3′,5′-bis(α,α-dimethylbenzyl)-2′hydroxyphenyl)benzotriazole]", "values": [{"measurement": "Delta VI Value (hydrolytic testing)", "setting": "[2]", "result": 0.36}, {"measurement": "YI Value (initial color)", "setting": "[1]", "result": 7.1}]}, {"molecule": "O=C(OCCOc1ccc(C(=O)c2ccccc2)c(O)c1)OCCOc1ccc(C(=O)c2ccccc2)c(O)c1", "note": "[Compound D, {2-(3′-hydroxy-4′-benzoylphenoxy)ethyl}carbonate]", "values": [{"measurement": "Delta VI Value (hydrolytic testing)", "setting": "[2]", "result": 0.56}, {"measurement": "YI Value (initial color)", "setting": "[1]", "result": 7.7}]}, {"molecule": "O=C(c1ccccc1)c1ccc(OCCCCCCOc2ccc(C(=O)c3ccccc3)c(O)c2)cc1O", "note": "[Compound E, 1,6-bis(3′hydroxy-4′-benzoylphenoxy)hexane]", "values": [{"measurement": "Delta VI Value (hydrolytic testing)", "setting": "[2]", "result": 0.93}]}, {"molecule": "CC(C)(C)CC(C)(C)c1cc(Cc2cc(C(C)(C)CC(C)(C)C)cc(-n3nc4ccccc4n3)c2O)c(O)c(-n2nc3ccccc3n2)c1", "note": "[Compound F]", "values": [{"measurement": "Delta VI Value (hydrolytic testing)", "setting": "[2]", "result": 1.26}, {"measurement": "YI Value (initial color)", "setting": "[1]", "result": 8.6}]}]}
